Results on one compound are retold here after patent US4255585A, “Benzoheterocyclic derivatives of phenoxyacetic acid” (Centre European de Recherches Pharmacologique, priority 1975, dated 1981).

The series is described as follows: in vivo. Conditions: mouse, po, male Swiss C.D. mice, per os, mortality after 48 hours, read-out: LD 50 per os. On the procedure:
The three compounds were administered in the usual way to lots of 10 male mice (Swiss C.D.) of average weight 20 g. Mortality was assessed after 48 hours for toxicity per os.

For `NS(=O)(=O)c1cc(C(=O)O)c(NCc2ccco2)cc1Cl` [furosemide, reference compound], the LD50 at 48 h stood at 1120 mg/kg.
